Measured data: PubChem BioAssay AID1053208 (Peter MacCallum Cancer Centre, 2014)
Screen: 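Find knock-downs that sensitise mouse osteosarcoma cells to doxorubicin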 (primary screen). Cell system: mouse osteosarcoma cells, early-passage culture from an engineered mouse model of fibroblastic bone tumour. Reagents: siRNA pool against mouse genes, 40 nM. Duration: about 120 h (48 h before drug, then 72 h with drug). Challenge: doxorubicin 100 nM for 72 h, roughly 30-40% inhibitory dose. Measurement: 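Viability read as ATP luminescence after 72 h of 100 nM doxorubicin or none, duplicate wells averaged, scaled to non-targeting siRNA, then expressed as robust z-scores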. Direction: viability z-score with doxorubicin: higher = more viable cells under doxorubicin; viability z-score without drug: higher = more viable cells with knock-down alone. Hit rule: 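a pool counts as active when its viability z-score with doxorubicin is -2 or below and its z-score without drug lies between -2 and 2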.
The whole screen tested about 17,000 reagents; below is an unselected part. Of all reagents, 788 (4.7%) got an active call. 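Calls rest on z-score classes alone; an extra cut-off of viability at most 70% of control was not applied to them.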 Entries without a mark were called inactive. Reagents against one gene are numbered here. A reagent listed more than once was tested more than once; the source does not tell the runs apart. Further read-outs or replicates are left out here.

Depletion of Dppa3 gave: combined z-score class no change with or without drug; viability z-score with doxorubicin 0; viability z-score without drug 0.
After knock-down of BC024139, the record shows combined z-score class no change with or without drug; viability z-score with doxorubicin -1.01; viability z-score without drug -1.18.
Akap7 scored combined z-score class no change with or without drug; viability z-score with doxorubicin -0.67; viability z-score without drug 1.01.
With knock-down of Chka, the record shows combined z-score class no change with or without drug; viability z-score with doxorubicin -0.11; viability z-score without drug 0.34.
Depletion of Grk4 resulted in: combined z-score class no change with or without drug; viability z-score with doxorubicin 0.11; viability z-score without drug -0.84.
For Grk4 the deposit lists combined z-score class no change with or without drug; viability z-score with doxorubicin 1.46; viability z-score without drug 1.85.
With knock-down of Abcc3 the results were combined z-score class no change with or without drug; viability z-score with doxorubicin -0.67; viability z-score without drug 0.34.
Against E230012M21, the entry reads combined z-score class no change with or without drug; viability z-score with doxorubicin -0.22; viability z-score without drug 0.34.
With knock-down of Fras1, the screen gave combined z-score class no change with or without drug; viability z-score with doxorubicin 0.34; viability z-score without drug 0.17.
Gpr161 showed combined z-score class no change with or without drug; viability z-score with doxorubicin 1.12; viability z-score without drug 1.52.
Bmyc scored combined z-score class no change with or without drug; viability z-score with doxorubicin 0; viability z-score without drug 0.51.
Depletion of Spsb2 resulted in: combined z-score class no change with or without drug; viability z-score with doxorubicin -0.9; viability z-score without drug -0.84.
Morf4l1 scored combined z-score class no change with or without drug; viability z-score with doxorubicin -1.46; viability z-score without drug -1.52.
For Hdac5, the entry reads combined z-score class no change with or without drug; viability z-score with doxorubicin 0; viability z-score without drug 0.51.
Knock-down of Rpp21 resulted in: combined z-score class no change with or without drug; viability z-score with doxorubicin 0; viability z-score without drug -0.84.
Against Nipbl #1, the entry reads combined z-score class low cell count with and without drug; viability z-score with doxorubicin -4.5; viability z-score without drug -2.87.
For Nipbl #2, the entry reads combined z-score class no change with or without drug; viability z-score with doxorubicin -0.45; viability z-score without drug 0.67.
Mplkip gave combined z-score class no change with or without drug; viability z-score with doxorubicin 1.01; viability z-score without drug 1.18.
Depletion of Hspa9 gave: combined z-score class low cell count with and without drug; viability z-score with doxorubicin -3.6; viability z-score without drug -3.2.
For Prl8a9 the deposit lists combined z-score class no change with or without drug; viability z-score with doxorubicin -0.9; viability z-score without drug 0.17.
Slc35e4 showed combined z-score class no change with or without drug; viability z-score with doxorubicin 1.12; viability z-score without drug 0.51.
Against Asl the deposit lists combined z-score class no change with or without drug; viability z-score with doxorubicin -0.56; viability z-score without drug -0.84.
With knock-down of Akr1b10 the results were combined z-score class no change with or without drug; viability z-score with doxorubicin 1.12; viability z-score without drug 0.84.
Against Rnf38, the values are combined z-score class no change with or without drug; viability z-score with doxorubicin 0.56; viability z-score without drug 0.67.
Or8s5 showed combined z-score class no change with or without drug; viability z-score with doxorubicin -0.67; viability z-score without drug -1.52.
After knock-down of Kcnq2, the screen gave combined z-score class no change with or without drug; viability z-score with doxorubicin 1.01; viability z-score without drug -0.17.
After knock-down of Trak1 the results were combined z-score class no change with or without drug; viability z-score with doxorubicin 0.9; viability z-score without drug 1.52.
Fbxo16 gave combined z-score class no change with or without drug; viability z-score with doxorubicin -1.57; viability z-score without drug 0.51.
Depletion of Dmwd gave: combined z-score class no change with or without drug; viability z-score with doxorubicin -0.56; viability z-score without drug -0.51.
After knock-down of Adam1b, the screen gave combined z-score class no change with or without drug; viability z-score with doxorubicin 0.22; viability z-score without drug -0.51.
Depletion of Prelid1 gave: combined z-score class no change with or without drug; viability z-score with doxorubicin -0.56; viability z-score without drug -0.84.
After knock-down of Brwd1, the screen gave combined z-score class no change with or without drug; viability z-score with doxorubicin -1.12; viability z-score without drug -0.17.
Prss43 gave combined z-score class no change with or without drug; viability z-score with doxorubicin -0.45; viability z-score without drug -0.51.
After knock-down of Hecw2, the record shows combined z-score class no change with or without drug; viability z-score with doxorubicin -0.22; viability z-score without drug 0.67.
Against Faim, the values are combined z-score class no change with or without drug; viability z-score with doxorubicin 0.45; viability z-score without drug 0.17.
For Or5ak23, the values are combined z-score class no change with or without drug; viability z-score with doxorubicin 0.22; viability z-score without drug -0.17.

Part of the list above, limited to “combined z-score class”:
Abcc3 = no change with or without drug
E230012M21 = no change with or without drug
Fras1 = no change with or without drug
Gpr161 = no change with or without drug
